Measurements reported in PubChem BioAssay AID1508597 (Cure First, 2020)

Purpose: 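Genes whose silencing sensitises or protects ovarian cancer cells against rucaparib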 (primary screen)
Cells: human ovarian carcinoma lines grown from tumours: OCI-P5x (papillary serous) and OCI-C5x (clear cell)
Knock-down reagent: siRNA pool against human genes, 1.25 pmol siRNA per well
Time to read-out: 72 h or 96 h, depending on the cell culture
Treatment: rucaparib 20 µM (about IC30) or vehicle, present until read-out
Rucaparib or vehicle: Vehicle
Cell line: OCI-P5x (serous)
Measured: 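Luminescent ATP-based viability assay read 72 or 96 h after transfection, depending on culture, given as normalised percent viability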
Reading the numbers: viability, normalised: higher = more viable cells remaining
Hit rule: 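a well counts as a hit if its normalised viability is under 80 percent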
Calls: active = viability under 80%; inactive = viability 80% or more
This is an unselected part of the about 2,100 reagents, in one setting of the screen. 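Calls flag viability under 80% in either arm, not effects specific to rucaparib; the reference for percent is not stated.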 The numbers tell different reagents against one gene apart. A reagent listed more than once was tested more than once; the source does not tell the runs apart. Reagent sequences are not shown. Not given: the 100% reference.

gene knocked down | reagent | technical replicate | viability, normalised (%) | outcome
EPHA7 (EPH receptor A7) | 1 | 1 | 82 | inactive
EPHA7 (EPH receptor A7) | 1 | 2 | 104 | inactive
EPHA7 (EPH receptor A7) | 1 | 3 | 98.9 | inactive
DHX36 (DEAH-box helicase 36) | 1 | 1 | 74.6 | active
DHX36 (DEAH-box helicase 36) | 1 | 2 | 76.9 | active
DHX36 (DEAH-box helicase 36) | 1 | 3 | 72.9 | active
KIF18A (kinesin family member 18A) | 1 | 1 | 33.6 | active
KIF18A (kinesin family member 18A) | 1 | 1 | 62.3 | active
KIF18A (kinesin family member 18A) | 1 | 2 | 54.1 | active
KIF18A (kinesin family member 18A) | 1 | 2 | 37.1 | active
KIF18A (kinesin family member 18A) | 1 | 3 | 35.4 | active
KIF18A (kinesin family member 18A) | 1 | 3 | 64.2 | active
TTBK1 (tau tubulin kinase 1) | 1 | 1 | 74.7 | active
TTBK1 (tau tubulin kinase 1) | 1 | 2 | 85.1 | inactive
TTBK1 (tau tubulin kinase 1) | 1 | 3 | 79.8 | active
SNCA (synuclein alpha) | 1 | 1 | 55.8 | active
SNCA (synuclein alpha) | 1 | 2 | 52.1 | active
SNCA (synuclein alpha) | 1 | 3 | 69.7 | active
BABAM2 (BRISC and BRCA1 A complex member 2) | 1 | 1 | 84.5 | inactive
BABAM2 (BRISC and BRCA1 A complex member 2) | 1 | 1 | 84.1 | inactive
BABAM2 (BRISC and BRCA1 A complex member 2) | 1 | 2 | 86.6 | inactive
BABAM2 (BRISC and BRCA1 A complex member 2) | 1 | 2 | 97.6 | inactive
BABAM2 (BRISC and BRCA1 A complex member 2) | 1 | 3 | 102 | inactive
BABAM2 (BRISC and BRCA1 A complex member 2) | 1 | 3 | 90 | inactive
PDGFRB (platelet derived growth factor receptor beta) | 1 | 1 | 77.5 | active
PDGFRB (platelet derived growth factor receptor beta) | 1 | 2 | 77.1 | active
PDGFRB (platelet derived growth factor receptor beta) | 1 | 3 | 80.9 | inactive
IP6K3 (inositol hexakisphosphate kinase 3) | 1 | 1 | 93.3 | inactive
IP6K3 (inositol hexakisphosphate kinase 3) | 1 | 2 | 98.6 | inactive
IP6K3 (inositol hexakisphosphate kinase 3) | 1 | 3 | 83.4 | inactive
IP6K3 (inositol hexakisphosphate kinase 3) | 2 | 1 | 83.9 | inactive
IP6K3 (inositol hexakisphosphate kinase 3) | 2 | 2 | 62 | active
IP6K3 (inositol hexakisphosphate kinase 3) | 2 | 3 | 79.2 | active
PHF7 (PHD finger protein 7) | 1 | 1 | 71.8 | active
PHF7 (PHD finger protein 7) | 1 | 2 | 53.5 | active
PHF7 (PHD finger protein 7) | 1 | 3 | 140 | inactive
KDM5B (lysine demethylase 5B) | 1 | 1 | 55.6 | active
KDM5B (lysine demethylase 5B) | 1 | 2 | 68.7 | active
KDM5B (lysine demethylase 5B) | 1 | 3 | 97.5 | inactive
GUCY2C (guanylate cyclase 2C) | 1 | 1 | 60.5 | active
GUCY2C (guanylate cyclase 2C) | 1 | 2 | 69.7 | active
GUCY2C (guanylate cyclase 2C) | 1 | 3 | 65.9 | active
KAT5 (lysine acetyltransferase 5) | 1 | 1 | 64.1 | active
KAT5 (lysine acetyltransferase 5) | 1 | 2 | 78.2 | active
KAT5 (lysine acetyltransferase 5) | 1 | 3 | 83.7 | inactive
CDH1 (cadherin 1) | 1 | 1 | 59.6 | active
CDH1 (cadherin 1) | 1 | 2 | 62.8 | active
CDH1 (cadherin 1) | 1 | 3 | 56.1 | active
DGKB (diacylglycerol kinase beta) | 1 | 1 | 90.2 | inactive
DGKB (diacylglycerol kinase beta) | 1 | 2 | 94.5 | inactive
DGKB (diacylglycerol kinase beta) | 1 | 3 | 108 | inactive
HDGFL2 (HDGF like 2) | 1 | 1 | 62.4 | active
HDGFL2 (HDGF like 2) | 1 | 2 | 76.6 | active
HDGFL2 (HDGF like 2) | 1 | 3 | 55.2 | active
RYK (receptor like tyrosine kinase) | 1 | 1 | 88.7 | inactive
RYK (receptor like tyrosine kinase) | 1 | 2 | 62.3 | active
RYK (receptor like tyrosine kinase) | 1 | 3 | 91.5 | inactive

Records listed so far whose target name starts with E or e:
gene knocked down | reagent | technical replicate | viability, normalised (%) | outcome
EPHA7 (EPH receptor A7) | 1 | 1 | 82 | inactive
EPHA7 (EPH receptor A7) | 1 | 2 | 104 | inactive
EPHA7 (EPH receptor A7) | 1 | 3 | 98.9 | inactive
